These are yes or no findings as the source states them, for the method shown. Binding seen in cells or lysates may run through a third protein. Some entries that bind do so weakly or less than the wild type. Values belong to the molecule of their own block, whether it stands above or below them.
How the values were obtained:
[1] = target: myosin VI (MVI), endogenous in PC12 cells (rat (endogenous in PC12)) (UniProt D4A5I9); assay: proximity ligation; Duolink in situ PLA on fixed PC12 cells, rabbit anti-MVI with mouse monoclonal antibodies to the partner; foci counted per nucleus
[2] = target: myosin VI (MVI), endogenous in PC12 cells (rat (endogenous in PC12)) (UniProt D4A5I9); assay: co-IP; PC12 cell lysate, anti-MVI antibody (non-immunized rabbit IgG as control), A/G agarose beads, 4°C; 50 mM Tris pH 7.5, 150 mM NaCl, 2 mM EGTA, 0.1% Triton X-100, 2 mM MgCl2, 2 mM MgATP; immunoblotting
[3] = target: MVI C-terminal globular tail domain fused with GST (GST-MVI-GD) (rat) (UniProt D4A5I9); assay: pull-down; GST-MVI-GD or GST alone bound to Glutathione Sepharose 4B, incubated 4 h at 4°C with PC12 cell lysate precleared on GST beads; 50 mM Tris pH 7.5, 150 mM NaCl, 0.1% Triton X-100, 1 mM DTT, 2 mM EGTA; immunoblotting; only the target purified
[4] = target: myosin VI (MVI), endogenous in PC12 cells (rat (endogenous in PC12)) (UniProt D4A5I9); assay: proximity ligation; Duolink in situ PLA on fixed PC12 cells, rabbit anti-MVI with mouse monoclonal antibodies to the partner; foci counted per nucleus; remark: listed apart in the source

Sequences of proteins named here, by UniProt entry; tags and fusion partners are left off. A change or cut given only in a name is not applied to a line headed by its entry. A line that says so, or that is headed by a name, gives the form on record, which may keep a tag or linker. Residues count along the entry.
UniProt D4A5I9: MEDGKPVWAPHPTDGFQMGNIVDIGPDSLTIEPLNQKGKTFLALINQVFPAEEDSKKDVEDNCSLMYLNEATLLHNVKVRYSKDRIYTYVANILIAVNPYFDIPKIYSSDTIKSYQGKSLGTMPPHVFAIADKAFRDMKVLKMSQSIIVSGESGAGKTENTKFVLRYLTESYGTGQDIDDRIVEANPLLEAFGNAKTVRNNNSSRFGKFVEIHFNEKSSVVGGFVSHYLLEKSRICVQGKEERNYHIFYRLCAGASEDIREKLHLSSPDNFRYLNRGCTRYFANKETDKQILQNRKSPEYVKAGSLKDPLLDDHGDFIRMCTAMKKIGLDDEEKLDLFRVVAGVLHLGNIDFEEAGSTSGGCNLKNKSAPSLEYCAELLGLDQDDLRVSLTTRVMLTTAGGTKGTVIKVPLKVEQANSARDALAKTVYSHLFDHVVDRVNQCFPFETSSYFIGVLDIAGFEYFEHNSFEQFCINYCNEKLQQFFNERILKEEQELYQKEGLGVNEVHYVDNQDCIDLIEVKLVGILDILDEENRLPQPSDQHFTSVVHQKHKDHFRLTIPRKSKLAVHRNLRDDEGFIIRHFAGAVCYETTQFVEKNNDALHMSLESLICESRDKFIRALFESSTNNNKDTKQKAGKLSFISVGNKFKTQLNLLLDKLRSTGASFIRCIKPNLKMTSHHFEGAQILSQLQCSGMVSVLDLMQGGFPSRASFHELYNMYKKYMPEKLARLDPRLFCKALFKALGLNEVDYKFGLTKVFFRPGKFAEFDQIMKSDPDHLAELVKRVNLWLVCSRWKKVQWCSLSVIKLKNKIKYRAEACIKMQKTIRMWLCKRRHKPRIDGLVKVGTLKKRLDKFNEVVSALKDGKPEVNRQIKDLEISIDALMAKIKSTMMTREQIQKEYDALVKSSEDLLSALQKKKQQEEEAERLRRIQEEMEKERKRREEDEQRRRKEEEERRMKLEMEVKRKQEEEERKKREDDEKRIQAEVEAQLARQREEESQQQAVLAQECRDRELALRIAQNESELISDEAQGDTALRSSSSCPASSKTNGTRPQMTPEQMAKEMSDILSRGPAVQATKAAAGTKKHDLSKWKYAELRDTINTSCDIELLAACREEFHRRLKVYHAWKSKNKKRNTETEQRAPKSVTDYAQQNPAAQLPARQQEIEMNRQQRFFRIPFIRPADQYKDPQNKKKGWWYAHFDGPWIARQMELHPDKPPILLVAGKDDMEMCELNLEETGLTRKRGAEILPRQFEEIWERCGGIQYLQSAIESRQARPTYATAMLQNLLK
MVI C-terminal globular tail domain fused with GST (GST-MVI-GD): residues 1046-1285 of D4A5I9
UniProt O54889: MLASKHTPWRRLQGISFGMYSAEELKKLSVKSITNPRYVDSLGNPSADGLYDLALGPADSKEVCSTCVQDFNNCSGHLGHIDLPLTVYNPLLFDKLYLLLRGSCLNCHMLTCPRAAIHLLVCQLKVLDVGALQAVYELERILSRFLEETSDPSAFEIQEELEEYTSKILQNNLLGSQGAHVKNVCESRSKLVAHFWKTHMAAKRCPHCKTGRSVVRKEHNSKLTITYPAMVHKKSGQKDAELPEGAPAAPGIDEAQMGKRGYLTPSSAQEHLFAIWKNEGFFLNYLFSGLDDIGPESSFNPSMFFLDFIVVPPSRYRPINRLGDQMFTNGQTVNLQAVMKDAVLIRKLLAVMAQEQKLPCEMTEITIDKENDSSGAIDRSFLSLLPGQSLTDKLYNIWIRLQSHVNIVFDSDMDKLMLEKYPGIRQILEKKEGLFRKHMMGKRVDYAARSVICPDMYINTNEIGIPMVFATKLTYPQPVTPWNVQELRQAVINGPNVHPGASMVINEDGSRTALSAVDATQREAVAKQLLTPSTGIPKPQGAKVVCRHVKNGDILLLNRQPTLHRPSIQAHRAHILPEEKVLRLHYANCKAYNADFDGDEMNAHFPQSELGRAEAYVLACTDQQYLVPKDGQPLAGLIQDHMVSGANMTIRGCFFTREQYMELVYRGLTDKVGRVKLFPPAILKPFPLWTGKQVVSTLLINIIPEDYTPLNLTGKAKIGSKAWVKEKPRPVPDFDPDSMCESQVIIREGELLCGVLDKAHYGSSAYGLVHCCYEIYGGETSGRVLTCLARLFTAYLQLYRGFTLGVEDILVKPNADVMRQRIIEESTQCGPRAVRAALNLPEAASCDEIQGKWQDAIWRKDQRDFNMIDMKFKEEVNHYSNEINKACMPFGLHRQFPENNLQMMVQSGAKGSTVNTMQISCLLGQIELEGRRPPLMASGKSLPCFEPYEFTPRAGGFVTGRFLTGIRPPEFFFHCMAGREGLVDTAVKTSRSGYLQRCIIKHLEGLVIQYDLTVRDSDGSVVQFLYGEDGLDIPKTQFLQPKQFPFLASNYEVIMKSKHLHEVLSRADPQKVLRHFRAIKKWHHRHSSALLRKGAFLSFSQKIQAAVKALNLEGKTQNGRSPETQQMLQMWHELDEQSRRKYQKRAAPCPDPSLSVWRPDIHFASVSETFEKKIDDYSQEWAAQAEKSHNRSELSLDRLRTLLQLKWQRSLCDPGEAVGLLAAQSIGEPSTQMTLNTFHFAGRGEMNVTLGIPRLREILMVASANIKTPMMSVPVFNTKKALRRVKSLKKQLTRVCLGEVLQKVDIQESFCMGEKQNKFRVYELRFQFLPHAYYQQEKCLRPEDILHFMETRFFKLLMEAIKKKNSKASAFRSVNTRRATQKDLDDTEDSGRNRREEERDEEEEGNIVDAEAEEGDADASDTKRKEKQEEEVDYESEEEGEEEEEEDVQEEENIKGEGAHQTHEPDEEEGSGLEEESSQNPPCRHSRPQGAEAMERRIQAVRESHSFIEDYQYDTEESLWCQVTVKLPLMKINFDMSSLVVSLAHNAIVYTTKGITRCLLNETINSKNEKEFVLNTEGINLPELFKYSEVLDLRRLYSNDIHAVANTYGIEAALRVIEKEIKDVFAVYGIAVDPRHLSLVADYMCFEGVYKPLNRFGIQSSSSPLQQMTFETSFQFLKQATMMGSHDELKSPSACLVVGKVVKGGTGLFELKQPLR

binding [1]: binds
Molecule: Pol1 (RPA 194) (from UniProt O54889 1-1716)

binding [2]: binds
binding [3]: binds
binding [1]: binds
B1: B23 (also termed nucleophosmin, NPM1) (natural protein, rat (endogenous in PC12), UniProt P13084 1-292, looked up)
chain: MEDSMDMDMSPLRPQNYLFGCELKADKDYHFKVDNDENEHQLSLRTVSLGAGAKDELHIVEAEAMNYEGSPIKVTLATLKMSVQPTVSLGGFEITPPVVLRLKCGSGPVHISGQHLVAVEEDAESEDEDEEDVKLLGMSGKRSAPGGGNKVPQKKVKLDEDDDEDDEDDEDDEDDDDDDFDEEETEEKVPVKKSVRDTPAKNAQKSNQNGKDLKPSTPRSKGQESFKKQEKTPKTPKGPSSVEDIKAKMQASIEKGGSLPKVEAKFINYVKNCFRMTDQEAIQDLWQWRKSL
notes: B23 / nucleophosmin, endogenous in PC12 cells, detected with a mouse monoclonal anti-B23 antibody; source: endogenous, PC12 cells (lysate or fixed cells)

binding [4]: binds
binding [2]: binds weakly
binding [3]: binds weakly
B2: fibrillarin (natural protein, rat (endogenous in PC12), UniProt P22509 1-327, looked up)
chain: MKPGFSPRGGGFGGRGGFGDRGGRGGGRGGRGGFGGGRGGFGGGGRGRGGGGGGFRGRGGGGGRGGGFQSGGGRGRGGGRGGKRGNQSGKNVMVEPHRHEGVFICRGKEDALVTKNLVPGESVYGEKRVSISEGDDKIEYRAWNPFRSKLAAAILGGVDQIHIKPGAKVLYLGAASGTTVSHVSDIVGPDGLVYAVEFSHRSGRDLINLAKKRTNIIPVIEDARHPHKYRMLIAMVDVIFADVAQPDQTRIVALNAHTFLRNGGHFVISIKANCIDSTASAEAVFASEVKKMQQENMKPQEQLTLEPYERDHAVVVGVYRPPPKAKN
notes: fibrillarin, endogenous in PC12 cells, detected with a mouse monoclonal anti-fibrillarin antibody; source: endogenous, PC12 cells (lysate or fixed cells)

binding [4]: binds
binding [2]: binds
binding [3]: binds
B3: UBF (upstream binding factor) (natural protein, rat (endogenous in PC12), UniProt P25977 1-764, looked up)
chain: MNGEADCPTDLEMAAPKGQDRWSQEDMLTLLECMKNNLPSNDSSKFKTTESHMDWEKVAFKDFSGDMCKLKWVEISNEVRKFRTLTELILDAQEHVKNPYKGKKLKKHPDFPKKPLTPYFRFFMEKRAKYAKLHPEMSNLDLTKILSKKYKELPEKKKMKYIQDFQREKQEFERNLARFREDHPDLIQNAKKSDIPEKPKTPQQLWYTHEKKVYLKVRPDATTKEVKDSLGKQWSQLSDKKRLKWIHKALEQRKEYEEIMRDYIQKHPELNISEEGITKSTLTKAERQLKDKFDGRPTKPPPNSYSLYCAELMANMKDVPSTERMVLCSQQWKLLSQKEKDAYHKKCDQKKKDYEVELLRFLESLPEEEQQRVLGEEKMLNINKKQTTSPASKKPSQEGGKGGSEKPKRPVSAMFIFSEEKRRQLQEERPELSESELTRLLARMWNDLSEKKKAKYKAREAALKAQSERKPGGEREDRGKLPESPKRAEEIWQQSVIGDYLARFKNDRVKALKAMEMTWNNMEKKEKLMWIKKAAEDQKRYERELSEMRAPPAATNSSKKMKFQGEPKKPPMNGYQKFSQELLSNGELNHLPLKERMVEIGSRWQRISQSQKEHYKKLAEEQQRQYKVHLDLWVKSLSPQDRAAYKEYISNKRKNMTKLRGPNPKSSRTTLQSKSESEEDDDEEDDDDDDEEEEEDDENGDSSEDGGDSSESSSEDESEDGDENEDDDDDEDDDEDDDEDEDNESEGSSSSSSSSGDSSDSDSN
notes: source: endogenous, PC12 cells (lysate or fixed cells)

— PMC11106421, “Myosin VI in the nucleolus of neurosecretory PC12 cells: its involvement in the maintenance of nucleolar structure and ribosome organization” (Frontiers in Physiology, 2024)
